Source: the supplement of paper PMC10849652
This is one part of the list.

Protein sequences, listed by entry. Tags and fused reporters are not part of them. Lines headed by an entry give the natural chain unless they say otherwise; changes in a name come on top.
UniProt Q9NP79: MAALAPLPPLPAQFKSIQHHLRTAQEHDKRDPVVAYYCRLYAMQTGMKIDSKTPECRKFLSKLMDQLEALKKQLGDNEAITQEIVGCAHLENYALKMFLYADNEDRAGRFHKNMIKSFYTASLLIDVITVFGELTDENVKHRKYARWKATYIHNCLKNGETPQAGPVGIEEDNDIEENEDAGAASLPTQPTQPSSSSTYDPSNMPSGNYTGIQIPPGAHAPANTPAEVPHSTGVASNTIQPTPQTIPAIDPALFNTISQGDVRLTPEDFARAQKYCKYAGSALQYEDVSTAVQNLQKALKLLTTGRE
UniProt O94967: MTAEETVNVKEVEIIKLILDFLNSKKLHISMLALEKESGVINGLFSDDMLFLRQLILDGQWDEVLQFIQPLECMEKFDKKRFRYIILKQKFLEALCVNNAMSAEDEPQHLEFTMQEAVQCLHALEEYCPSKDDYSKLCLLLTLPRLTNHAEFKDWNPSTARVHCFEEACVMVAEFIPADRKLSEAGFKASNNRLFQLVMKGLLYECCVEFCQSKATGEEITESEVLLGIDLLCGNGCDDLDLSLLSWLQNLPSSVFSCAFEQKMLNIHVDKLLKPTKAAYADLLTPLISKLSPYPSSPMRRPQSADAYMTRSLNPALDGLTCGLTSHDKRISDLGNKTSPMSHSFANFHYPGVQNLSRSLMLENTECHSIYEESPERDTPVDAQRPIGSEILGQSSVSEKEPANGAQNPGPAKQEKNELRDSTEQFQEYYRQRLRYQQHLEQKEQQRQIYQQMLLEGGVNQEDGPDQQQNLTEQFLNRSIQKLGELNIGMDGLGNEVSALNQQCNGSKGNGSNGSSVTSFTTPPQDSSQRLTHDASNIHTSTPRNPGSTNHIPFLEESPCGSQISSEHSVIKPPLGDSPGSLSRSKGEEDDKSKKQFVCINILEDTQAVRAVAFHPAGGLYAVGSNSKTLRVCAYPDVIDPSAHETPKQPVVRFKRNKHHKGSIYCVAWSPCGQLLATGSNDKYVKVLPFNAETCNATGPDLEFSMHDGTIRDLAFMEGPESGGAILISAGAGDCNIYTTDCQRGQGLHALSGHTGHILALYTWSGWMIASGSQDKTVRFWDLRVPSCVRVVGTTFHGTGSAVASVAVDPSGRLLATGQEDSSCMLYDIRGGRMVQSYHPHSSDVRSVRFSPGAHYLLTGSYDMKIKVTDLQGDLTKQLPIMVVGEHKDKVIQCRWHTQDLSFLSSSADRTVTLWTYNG
UniProt P57081: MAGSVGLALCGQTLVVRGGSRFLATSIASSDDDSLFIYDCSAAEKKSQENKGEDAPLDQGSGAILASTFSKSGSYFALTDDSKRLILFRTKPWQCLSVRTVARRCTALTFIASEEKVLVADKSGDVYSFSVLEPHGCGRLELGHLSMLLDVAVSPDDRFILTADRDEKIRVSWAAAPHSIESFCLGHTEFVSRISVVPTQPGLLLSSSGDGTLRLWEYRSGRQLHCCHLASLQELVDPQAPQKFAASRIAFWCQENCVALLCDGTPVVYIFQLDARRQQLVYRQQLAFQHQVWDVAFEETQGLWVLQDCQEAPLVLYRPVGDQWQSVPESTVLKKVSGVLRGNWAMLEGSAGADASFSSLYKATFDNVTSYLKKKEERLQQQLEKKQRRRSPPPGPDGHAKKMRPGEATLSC
UniProt Q9UGM6: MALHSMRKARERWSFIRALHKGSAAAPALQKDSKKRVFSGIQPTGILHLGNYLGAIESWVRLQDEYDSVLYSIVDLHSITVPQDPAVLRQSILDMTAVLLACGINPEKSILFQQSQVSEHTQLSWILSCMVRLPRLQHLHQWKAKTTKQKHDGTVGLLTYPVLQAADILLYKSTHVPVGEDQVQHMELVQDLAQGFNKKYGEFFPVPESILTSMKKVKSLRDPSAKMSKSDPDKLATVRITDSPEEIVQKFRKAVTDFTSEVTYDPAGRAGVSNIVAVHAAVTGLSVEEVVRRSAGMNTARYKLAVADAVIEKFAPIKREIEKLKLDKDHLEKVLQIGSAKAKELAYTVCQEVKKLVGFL
UniProt Q9HAD4: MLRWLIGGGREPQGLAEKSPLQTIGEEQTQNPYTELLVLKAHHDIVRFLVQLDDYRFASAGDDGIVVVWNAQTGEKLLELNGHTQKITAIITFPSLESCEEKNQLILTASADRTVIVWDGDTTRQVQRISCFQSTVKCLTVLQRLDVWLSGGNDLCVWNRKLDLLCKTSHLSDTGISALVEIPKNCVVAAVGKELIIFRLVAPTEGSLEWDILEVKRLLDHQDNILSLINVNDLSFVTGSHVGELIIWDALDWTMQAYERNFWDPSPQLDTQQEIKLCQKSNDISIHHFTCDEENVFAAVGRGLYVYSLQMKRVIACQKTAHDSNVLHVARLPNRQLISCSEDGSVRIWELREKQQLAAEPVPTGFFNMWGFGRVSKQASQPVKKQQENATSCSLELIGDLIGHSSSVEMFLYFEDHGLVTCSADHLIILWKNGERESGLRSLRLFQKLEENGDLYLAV
UniProt O43516: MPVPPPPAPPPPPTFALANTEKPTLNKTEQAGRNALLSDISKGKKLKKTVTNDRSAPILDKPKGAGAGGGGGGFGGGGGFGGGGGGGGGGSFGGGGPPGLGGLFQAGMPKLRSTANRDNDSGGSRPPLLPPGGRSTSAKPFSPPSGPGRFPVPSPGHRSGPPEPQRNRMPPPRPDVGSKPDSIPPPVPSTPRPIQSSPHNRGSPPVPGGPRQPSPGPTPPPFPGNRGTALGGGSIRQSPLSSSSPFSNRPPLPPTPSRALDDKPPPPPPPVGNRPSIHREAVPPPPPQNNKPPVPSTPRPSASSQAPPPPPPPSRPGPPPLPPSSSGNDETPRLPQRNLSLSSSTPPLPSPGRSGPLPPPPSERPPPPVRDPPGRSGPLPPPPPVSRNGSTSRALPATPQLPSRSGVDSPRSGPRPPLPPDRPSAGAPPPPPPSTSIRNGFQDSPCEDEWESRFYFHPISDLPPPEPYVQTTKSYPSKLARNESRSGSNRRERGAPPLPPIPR
UniProt Q9BV38: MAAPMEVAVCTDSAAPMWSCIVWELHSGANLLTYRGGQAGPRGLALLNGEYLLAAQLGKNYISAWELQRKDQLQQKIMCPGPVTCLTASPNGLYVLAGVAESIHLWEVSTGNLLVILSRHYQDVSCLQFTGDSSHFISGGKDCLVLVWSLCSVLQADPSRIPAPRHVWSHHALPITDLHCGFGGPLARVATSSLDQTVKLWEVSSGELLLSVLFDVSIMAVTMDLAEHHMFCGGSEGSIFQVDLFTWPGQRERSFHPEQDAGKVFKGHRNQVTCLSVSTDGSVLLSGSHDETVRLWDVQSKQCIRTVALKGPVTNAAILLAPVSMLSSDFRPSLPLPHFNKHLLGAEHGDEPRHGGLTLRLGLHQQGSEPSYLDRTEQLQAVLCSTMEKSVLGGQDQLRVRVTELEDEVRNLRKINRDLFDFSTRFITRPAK
UniProt Q15061: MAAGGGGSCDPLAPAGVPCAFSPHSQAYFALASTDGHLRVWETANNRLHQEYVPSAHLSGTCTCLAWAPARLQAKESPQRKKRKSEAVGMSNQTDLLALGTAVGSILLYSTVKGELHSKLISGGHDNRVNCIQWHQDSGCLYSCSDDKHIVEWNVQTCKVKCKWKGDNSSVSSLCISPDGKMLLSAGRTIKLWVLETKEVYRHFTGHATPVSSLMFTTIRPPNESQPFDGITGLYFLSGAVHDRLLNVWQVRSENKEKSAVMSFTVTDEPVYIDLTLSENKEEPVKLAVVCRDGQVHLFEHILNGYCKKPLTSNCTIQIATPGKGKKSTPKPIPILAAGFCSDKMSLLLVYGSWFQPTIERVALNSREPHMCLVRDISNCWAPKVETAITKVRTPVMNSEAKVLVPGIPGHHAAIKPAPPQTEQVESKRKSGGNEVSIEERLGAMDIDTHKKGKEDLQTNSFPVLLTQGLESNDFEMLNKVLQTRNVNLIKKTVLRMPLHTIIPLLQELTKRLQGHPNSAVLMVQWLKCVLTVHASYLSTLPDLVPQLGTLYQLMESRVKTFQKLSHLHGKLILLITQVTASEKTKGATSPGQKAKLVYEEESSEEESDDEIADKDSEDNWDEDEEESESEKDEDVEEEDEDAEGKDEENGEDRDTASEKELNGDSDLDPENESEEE
UniProt Q9H7M9, whole entry, looked up: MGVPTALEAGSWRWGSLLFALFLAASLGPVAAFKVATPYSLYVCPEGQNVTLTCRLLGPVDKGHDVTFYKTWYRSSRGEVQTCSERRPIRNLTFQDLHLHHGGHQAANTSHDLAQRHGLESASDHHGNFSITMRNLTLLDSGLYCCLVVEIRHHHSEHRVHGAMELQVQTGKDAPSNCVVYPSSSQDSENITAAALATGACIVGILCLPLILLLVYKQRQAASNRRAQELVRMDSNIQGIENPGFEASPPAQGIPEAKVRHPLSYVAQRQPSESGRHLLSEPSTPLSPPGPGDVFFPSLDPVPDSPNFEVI
UniProt O75717: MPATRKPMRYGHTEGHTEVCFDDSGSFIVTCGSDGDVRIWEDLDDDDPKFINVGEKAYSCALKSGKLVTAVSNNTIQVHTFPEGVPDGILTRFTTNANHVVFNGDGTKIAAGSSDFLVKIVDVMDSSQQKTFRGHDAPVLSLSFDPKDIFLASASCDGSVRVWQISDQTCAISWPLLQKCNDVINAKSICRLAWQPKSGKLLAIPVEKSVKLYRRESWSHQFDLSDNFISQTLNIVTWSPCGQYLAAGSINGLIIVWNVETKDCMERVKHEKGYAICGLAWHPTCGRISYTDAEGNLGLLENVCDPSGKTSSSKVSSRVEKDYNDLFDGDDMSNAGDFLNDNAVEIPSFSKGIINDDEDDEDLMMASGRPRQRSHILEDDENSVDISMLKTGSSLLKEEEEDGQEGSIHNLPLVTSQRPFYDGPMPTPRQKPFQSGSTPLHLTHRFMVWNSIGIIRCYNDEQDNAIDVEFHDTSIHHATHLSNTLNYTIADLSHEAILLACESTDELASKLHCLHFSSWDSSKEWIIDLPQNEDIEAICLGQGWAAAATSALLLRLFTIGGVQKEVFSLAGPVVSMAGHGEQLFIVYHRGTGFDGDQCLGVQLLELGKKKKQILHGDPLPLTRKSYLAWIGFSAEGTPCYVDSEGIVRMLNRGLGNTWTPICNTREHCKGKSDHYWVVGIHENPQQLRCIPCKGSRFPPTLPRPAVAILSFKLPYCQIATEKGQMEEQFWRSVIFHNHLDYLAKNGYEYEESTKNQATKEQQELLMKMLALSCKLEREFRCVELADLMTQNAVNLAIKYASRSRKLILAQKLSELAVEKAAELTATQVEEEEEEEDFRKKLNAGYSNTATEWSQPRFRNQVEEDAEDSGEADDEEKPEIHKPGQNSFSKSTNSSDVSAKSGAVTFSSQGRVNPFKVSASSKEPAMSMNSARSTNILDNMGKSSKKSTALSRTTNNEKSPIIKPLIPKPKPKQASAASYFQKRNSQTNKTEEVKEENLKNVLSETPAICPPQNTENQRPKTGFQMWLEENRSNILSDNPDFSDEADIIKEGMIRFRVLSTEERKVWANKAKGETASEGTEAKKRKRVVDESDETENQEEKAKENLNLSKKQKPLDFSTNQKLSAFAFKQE
UniProt Q9Y3C0: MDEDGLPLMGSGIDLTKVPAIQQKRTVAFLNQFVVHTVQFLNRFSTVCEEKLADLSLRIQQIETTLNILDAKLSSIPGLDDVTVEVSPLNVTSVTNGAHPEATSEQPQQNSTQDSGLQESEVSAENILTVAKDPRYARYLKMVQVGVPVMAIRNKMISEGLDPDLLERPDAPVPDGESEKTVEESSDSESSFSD
UniProt Q14135: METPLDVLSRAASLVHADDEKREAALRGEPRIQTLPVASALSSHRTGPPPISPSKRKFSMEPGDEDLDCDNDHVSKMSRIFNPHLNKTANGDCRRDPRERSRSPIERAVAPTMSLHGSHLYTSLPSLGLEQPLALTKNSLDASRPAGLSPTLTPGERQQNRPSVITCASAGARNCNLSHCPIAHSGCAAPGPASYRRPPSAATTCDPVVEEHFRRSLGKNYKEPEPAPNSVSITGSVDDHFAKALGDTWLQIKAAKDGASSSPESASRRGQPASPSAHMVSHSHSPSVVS
UniProt Q5JSD2: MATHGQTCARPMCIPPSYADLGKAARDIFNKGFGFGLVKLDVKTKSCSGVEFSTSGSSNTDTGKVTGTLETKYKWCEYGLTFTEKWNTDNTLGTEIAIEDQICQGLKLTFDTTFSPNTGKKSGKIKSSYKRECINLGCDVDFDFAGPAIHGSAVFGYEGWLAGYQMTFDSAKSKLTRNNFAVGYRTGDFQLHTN
UniProt Q7Z5U6: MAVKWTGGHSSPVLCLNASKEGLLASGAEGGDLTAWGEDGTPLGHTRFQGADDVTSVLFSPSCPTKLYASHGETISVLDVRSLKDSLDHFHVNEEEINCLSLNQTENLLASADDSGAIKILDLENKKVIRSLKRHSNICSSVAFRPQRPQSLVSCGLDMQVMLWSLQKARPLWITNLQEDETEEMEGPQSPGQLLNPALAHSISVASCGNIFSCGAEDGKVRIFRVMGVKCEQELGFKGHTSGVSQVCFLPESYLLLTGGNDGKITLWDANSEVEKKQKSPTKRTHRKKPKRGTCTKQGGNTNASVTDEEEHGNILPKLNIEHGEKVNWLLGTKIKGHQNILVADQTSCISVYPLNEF

Assays:
Test in all cases: log2 fold change, soluble protein after heating vs DMSO (PISA); higher = thermal stabilisation; K562 cells, 10 uM, 30 min; active = over 0.2 and 3.5 SD of the protein, either way, in both replicates (recomputed)
[1] = compound: CS(=O)(=O)c1ccc(-c2cnc(N)c(C(=O)Nc3ccccc3)n2)cc1
In short: (§1)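 Values are thermal stability changes relative to control samples and are taken from duplicates. They are stated as log2 fold changes. Before quantification by TMTpro 16plex LC-MS/MS with equalised channel sums, K562 cells at 2×10^6 cells/mL were treated with 10 μM compound for 30 min, heated in aliquots for 3 min across 48°C-58°C, pooled, extracted in PBS with 0.5% NP-40 at 4°C, and centrifuged at 21,000xg for 90 min to give the soluble supernatant.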

crizotinib = compound: C[C@@H](Oc1cc(-c2cnn(C3CCNCC3)c2)cnc1N)c1c(Cl)ccc(F)c1Cl [crizotinib]
In short: as §1

[2] = compound: C[C@@H]1COCCN1C2=NC(=NC(=C2)C3(CC3)S(=O)(=O)C)C4=C5C=CNC5=CC=C4
In short: as §1

[3] = compound: C[C@H](C1=CC=C(C=C1)C(=O)NC2=C3C=CNC3=NC=C2)N
In short: as §1

gandotinib = compound: Cc1cc(Nc2cc(CN3CCOCC3)c3nc(C)c(Cc4ccc(Cl)cc4F)n3n2)n[nH]1 [gandotinib]
In short: as §1

[4] = compound: Cc1cc(SCc2sc(-c3ccc(C(F)(F)F)cc3)nc2C)ccc1OCC(=O)O
In short: as §1

doramapimod = compound: Cc1ccc(-n2nc(C(C)(C)C)cc2NC(=O)Nc2ccc(OCCN3CCOCC3)c3ccccc23)cc1 [doramapimod]
In short: as §1

ispinesib = compound: Cc1ccc(C(=O)N(CCCN)[C@@H](c2nc3cc(Cl)ccc3c(=O)n2Cc2ccccc2)C(C)C)cc1 [ispinesib]
In short: as §1

duvelisib = compound: C[C@H](Nc1ncnc2nc[nH]c12)c1cc2cccc(Cl)c2c(=O)n1-c1ccccc1 [duvelisib]
In short: as §1

tozasertib = compound: Cc1cc(Nc2cc(N3CCN(C)CC3)nc(Sc3ccc(NC(=O)C4CC4)cc3)n2)n[nH]1 [tozasertib]
In short: as §1

Measured: log2 fold change

VPS50 (UniProt Q96JG6)
inactive: [1] 0.012 | crizotinib -0.118 | [2] 0.044 | [3] 0.049 | gandotinib -0.066 | [4] 0.086 | doramapimod -0.032 | ispinesib -0.023

VTA1 (UniProt Q9NP79)
inactive: [1] 0.032 | crizotinib -0.049 | [2] 0.056 | [3] -0.019 | gandotinib -0.127 | [4] 0.057 | doramapimod -0.021 | ispinesib -0.014

VPS52 (UniProt Q8N1B4)
inactive: [1] -0.001 | crizotinib -0.102 | [2] -0.031 | [3] 0.058 | gandotinib -0.122 | [4] -0.013 | doramapimod 0.008 | ispinesib -0.068

VPS11 (UniProt Q9H270)
active: crizotinib -0.373
inactive: [1] 0.009 | [2] -0.039 | [3] 0.054 | gandotinib -0.111 | [4] 0.095 | doramapimod -0.029 | ispinesib -0.226

Copied from the entries so far (2 entries):
VPS52 (UniProt Q8N1B4)
inactive: [1] -0.001 | crizotinib -0.102 | [2] -0.031 | [3] 0.058 | gandotinib -0.122 | [4] -0.013 | doramapimod 0.008 | ispinesib -0.068

VPS11 (UniProt Q9H270)
active: crizotinib -0.373
inactive: [1] 0.009 | [2] -0.039 | [3] 0.054 | gandotinib -0.111 | [4] 0.095 | doramapimod -0.029 | ispinesib -0.226

Next results.

WDR47 (UniProt O94967)
inactive: [1] -0.024 | crizotinib 0.048 | [2] 0.024 | [3] -0.003 | gandotinib 0.09 | [4] -0.011 | doramapimod -0.034 | ispinesib 0.025

VPS51 (UniProt Q9UID3)
inactive: [1] -0.009 | crizotinib -0.096 | [2] -0.003 | [3] 0.05 | gandotinib -0.04 | [4] 0.079 | doramapimod 0.008 | ispinesib -0.115

WDR4 (UniProt P57081)
inactive: [1] 0.085 | crizotinib -0.038 | [2] -0.024 | [3] -0.121 | gandotinib 0.049 | [4] 0.017 | doramapimod 0.023 | ispinesib 0.075

WARS2 (UniProt Q9UGM6)
inactive: [1] -0.062 | crizotinib 0.09 | [2] 0.065 | [3] 0.027 | gandotinib 0.006 | [4] 0.04 | doramapimod 0.017 | ispinesib -0.085

WDR41 (UniProt Q9HAD4)
inactive: [1] 0.01 | crizotinib -0.093 | [2] -0.064 | [3] -0.064 | gandotinib -0.035 | [4] -0.02 | doramapimod -0.042 | ispinesib -0.172

WIPF1 isoform 3 (UniProt O43516)
inactive: [1] 0.005 | crizotinib 0.076 | [3] 0.022 | duvelisib -0.084 | gandotinib 0.098 | tozasertib -0.429 | [4] -0.027 | doramapimod -0.005 | ispinesib -0.01

WDR18 (UniProt Q9BV38)
inactive: [1] -0.023 | crizotinib -0.008 | [2] -0.022 | [3] -0.102 | gandotinib -0.021 | [4] -0.009 | doramapimod 0.026 | ispinesib 0.027

WDR43 (UniProt Q15061)
inactive: [1] 0.008 | crizotinib 0.08 | [2] 0.016 | [3] -0.051 | gandotinib 0.009 | [4] -0.053 | doramapimod -0.035 | ispinesib 0.081

VSIR (UniProt Q9H7M9)
inactive: [1] 0.037 | crizotinib 0.135 | [2] 0.034 | [3] 0.008 | gandotinib -0.13 | doramapimod 0.035 | ispinesib -0.094

VTI1A (UniProt Q96AJ9)
inactive: [1] -0.007 | crizotinib -0.072 | [2] 0.038 | [3] -0.022 | gandotinib 0.046 | [4] -0.019 | doramapimod 0.054 | ispinesib -0.237

WDHD1 (UniProt O75717)
inactive: [1] 0.038 | crizotinib 0.021 | [2] 0.098 | [3] -0.025 | gandotinib -0.029 | [4] 0.109 | doramapimod -0.093 | ispinesib 0.042

VDAC1 (UniProt C9JI87)
active: ispinesib -0.743
inactive: [1] 0.017 | [2] -0.195 | [3] 0.275 | [4] -0.281

WASHC3 (UniProt Q9Y3C0)
active: crizotinib -0.274 | ispinesib -0.4
inactive: [1] -0.014 | [2] 0.096 | [3] -0.039 | gandotinib -0.041 | [4] 0.014 | doramapimod 0.048

WDR46 (UniProt O15213)
inactive: [1] -0.05 | crizotinib 0.008 | [2] -0.731 | [3] 0.445 | gandotinib 0.27 | [4] 0.032 | doramapimod 0.142 | ispinesib -0.081

VGLL4 isoform 4 (UniProt Q14135)
inactive: [1] 0.093 | crizotinib -0.128 | [2] 0.028 | gandotinib -0.226 | tozasertib 0.115 | doramapimod -0.029 | ispinesib -0.022

WDR4 isoform 3 (UniProt P57081)
inactive: [1] 0.074 | [2] 0.125 | gandotinib -0.247

VDAC2 (UniProt Q5JSD2)
inactive: [1] 0.006 | [2] -0.063 | gandotinib -0.205

WDR24 (UniProt Q96S15)
inactive: [1] -0.065 | [2] -0.126 | [3] 0.114 | gandotinib 0.07 | tozasertib -0.073 | ispinesib -0.167

WDR53 (UniProt Q7Z5U6)
inactive: [1] 0.08 | crizotinib -0.037 | [3] 0.225 | duvelisib -0.057 | gandotinib -0.012 | tozasertib -0.021 | [4] -0.052 | doramapimod 0.024 | ispinesib -0.173

WDR46, A0A0G2JJL1
inactive: [1] -0.119 | crizotinib 0.086 | [2] -0.581 | [4] -0.125 | doramapimod 0.236

VCX3B (UniProt Q9H321)
inactive: [1] -0.121 | [2] 0.004 | [3] -0.015 | duvelisib 0.024 | gandotinib -0.03 | tozasertib -0.069 | [4] -0.057

VRK2 (UniProt Q86Y07)
active: [3] 0.472
inactive: [1] 0.048 | crizotinib -0.16 | [2] 0.015 | gandotinib -0.08 | [4] 0.012 | doramapimod 0.026 | ispinesib -0.115

WDR81 (UniProt Q562E7)
inactive: [1] 0.338 | crizotinib 0.058 | [2] 0.028 | tozasertib 0.134 | doramapimod -0.063 | ispinesib -0.177
